Literature values in patent publication US7807877B2, “Genetic sequences having methyltransferase activity and uses therefor” (International Flower Developments Pty. Ltd., priority 2002, dated 2010).
At least one compound was matched to its structure with a doubt left.

conditions: in 0.01% HCl/MeOH (v/v); data reviewed by Haslam; cited from earlier work

Row | SMILES | λmax nm* wavelength of maximum absorption
1 | Oc1cc(O)c2cc(O)c(-c3ccc(O)c(O)c3)[o+]c2c1 [Cyanidin] | 535 nm
2 | Oc1cc(O)c2cc(O)c(-c3cc(O)c(O)c(O)c3)[o+]c2c1 [Delphinidin] | 546 nm
3 | Oc1ccc(-c2[o+]c3cc(O)cc(O)c3cc2O)cc1 [Pelargonidin] | 520 nm
4 | COc1cc(-c2[o+]c3cc(O)cc(O)c3cc2O)cc(O)c1O [Petunidin] | 543 nm
